Reference: the supplement of paper PMC10849652
The list shows a part of the results.

Chains of the proteins cited; added tags and fusions are not shown. Lines headed by an entry give the natural chain unless they say otherwise; changes in a name come on top.
UniProt Q9BZX2: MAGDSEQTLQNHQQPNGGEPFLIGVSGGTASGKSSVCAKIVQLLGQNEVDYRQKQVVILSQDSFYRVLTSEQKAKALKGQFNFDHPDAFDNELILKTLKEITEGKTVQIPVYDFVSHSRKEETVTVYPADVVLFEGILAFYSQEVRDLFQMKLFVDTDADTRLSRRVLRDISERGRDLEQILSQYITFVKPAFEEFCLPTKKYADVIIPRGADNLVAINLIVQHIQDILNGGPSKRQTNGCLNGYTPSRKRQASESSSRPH
UniProt Q9BTM9: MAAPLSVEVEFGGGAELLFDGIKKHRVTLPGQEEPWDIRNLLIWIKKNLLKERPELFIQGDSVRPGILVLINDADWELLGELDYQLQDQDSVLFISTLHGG
UniProt Q70EL1: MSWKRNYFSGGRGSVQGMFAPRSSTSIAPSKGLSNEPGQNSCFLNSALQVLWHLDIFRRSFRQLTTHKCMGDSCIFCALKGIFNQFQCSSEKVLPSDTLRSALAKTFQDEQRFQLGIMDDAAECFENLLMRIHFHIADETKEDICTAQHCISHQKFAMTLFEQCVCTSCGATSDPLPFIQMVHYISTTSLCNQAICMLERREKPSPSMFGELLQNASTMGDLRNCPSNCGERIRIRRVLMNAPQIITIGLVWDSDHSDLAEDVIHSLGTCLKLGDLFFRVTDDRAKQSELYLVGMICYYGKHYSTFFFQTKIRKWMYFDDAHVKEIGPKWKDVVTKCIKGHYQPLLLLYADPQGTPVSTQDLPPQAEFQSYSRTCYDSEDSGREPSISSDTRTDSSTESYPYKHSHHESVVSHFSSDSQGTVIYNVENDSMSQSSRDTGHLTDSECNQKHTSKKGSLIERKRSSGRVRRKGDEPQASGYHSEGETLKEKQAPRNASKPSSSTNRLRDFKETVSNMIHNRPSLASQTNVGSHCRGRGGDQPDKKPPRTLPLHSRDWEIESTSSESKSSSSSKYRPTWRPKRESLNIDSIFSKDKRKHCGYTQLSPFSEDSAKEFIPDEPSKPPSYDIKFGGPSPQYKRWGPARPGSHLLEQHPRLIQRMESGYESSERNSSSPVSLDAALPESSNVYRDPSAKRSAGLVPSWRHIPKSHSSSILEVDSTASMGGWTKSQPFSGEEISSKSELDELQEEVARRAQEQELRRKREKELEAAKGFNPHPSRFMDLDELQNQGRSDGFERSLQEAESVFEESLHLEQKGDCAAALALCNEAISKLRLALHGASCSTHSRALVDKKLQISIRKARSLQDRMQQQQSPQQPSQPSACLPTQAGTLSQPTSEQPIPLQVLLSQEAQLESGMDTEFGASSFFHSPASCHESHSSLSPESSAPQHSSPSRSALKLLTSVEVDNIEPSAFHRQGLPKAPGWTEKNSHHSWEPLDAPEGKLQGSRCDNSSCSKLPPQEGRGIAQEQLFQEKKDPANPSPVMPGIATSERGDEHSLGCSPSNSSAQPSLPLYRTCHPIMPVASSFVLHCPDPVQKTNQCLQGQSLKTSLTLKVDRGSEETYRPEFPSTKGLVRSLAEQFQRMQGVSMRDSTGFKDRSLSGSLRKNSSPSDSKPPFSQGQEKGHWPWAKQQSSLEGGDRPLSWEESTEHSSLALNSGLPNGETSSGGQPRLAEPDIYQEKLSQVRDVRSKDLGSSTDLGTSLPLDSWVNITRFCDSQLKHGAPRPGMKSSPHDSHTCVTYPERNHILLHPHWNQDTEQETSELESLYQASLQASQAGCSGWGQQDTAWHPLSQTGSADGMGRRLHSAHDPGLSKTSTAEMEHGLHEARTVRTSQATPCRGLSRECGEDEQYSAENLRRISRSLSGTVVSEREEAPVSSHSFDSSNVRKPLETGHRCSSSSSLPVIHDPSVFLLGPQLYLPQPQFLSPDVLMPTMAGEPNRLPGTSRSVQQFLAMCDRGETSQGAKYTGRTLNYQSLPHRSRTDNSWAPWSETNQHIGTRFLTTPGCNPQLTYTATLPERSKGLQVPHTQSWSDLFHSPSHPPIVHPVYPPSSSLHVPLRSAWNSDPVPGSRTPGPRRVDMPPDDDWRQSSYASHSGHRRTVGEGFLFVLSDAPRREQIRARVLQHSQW
UniProt O95071: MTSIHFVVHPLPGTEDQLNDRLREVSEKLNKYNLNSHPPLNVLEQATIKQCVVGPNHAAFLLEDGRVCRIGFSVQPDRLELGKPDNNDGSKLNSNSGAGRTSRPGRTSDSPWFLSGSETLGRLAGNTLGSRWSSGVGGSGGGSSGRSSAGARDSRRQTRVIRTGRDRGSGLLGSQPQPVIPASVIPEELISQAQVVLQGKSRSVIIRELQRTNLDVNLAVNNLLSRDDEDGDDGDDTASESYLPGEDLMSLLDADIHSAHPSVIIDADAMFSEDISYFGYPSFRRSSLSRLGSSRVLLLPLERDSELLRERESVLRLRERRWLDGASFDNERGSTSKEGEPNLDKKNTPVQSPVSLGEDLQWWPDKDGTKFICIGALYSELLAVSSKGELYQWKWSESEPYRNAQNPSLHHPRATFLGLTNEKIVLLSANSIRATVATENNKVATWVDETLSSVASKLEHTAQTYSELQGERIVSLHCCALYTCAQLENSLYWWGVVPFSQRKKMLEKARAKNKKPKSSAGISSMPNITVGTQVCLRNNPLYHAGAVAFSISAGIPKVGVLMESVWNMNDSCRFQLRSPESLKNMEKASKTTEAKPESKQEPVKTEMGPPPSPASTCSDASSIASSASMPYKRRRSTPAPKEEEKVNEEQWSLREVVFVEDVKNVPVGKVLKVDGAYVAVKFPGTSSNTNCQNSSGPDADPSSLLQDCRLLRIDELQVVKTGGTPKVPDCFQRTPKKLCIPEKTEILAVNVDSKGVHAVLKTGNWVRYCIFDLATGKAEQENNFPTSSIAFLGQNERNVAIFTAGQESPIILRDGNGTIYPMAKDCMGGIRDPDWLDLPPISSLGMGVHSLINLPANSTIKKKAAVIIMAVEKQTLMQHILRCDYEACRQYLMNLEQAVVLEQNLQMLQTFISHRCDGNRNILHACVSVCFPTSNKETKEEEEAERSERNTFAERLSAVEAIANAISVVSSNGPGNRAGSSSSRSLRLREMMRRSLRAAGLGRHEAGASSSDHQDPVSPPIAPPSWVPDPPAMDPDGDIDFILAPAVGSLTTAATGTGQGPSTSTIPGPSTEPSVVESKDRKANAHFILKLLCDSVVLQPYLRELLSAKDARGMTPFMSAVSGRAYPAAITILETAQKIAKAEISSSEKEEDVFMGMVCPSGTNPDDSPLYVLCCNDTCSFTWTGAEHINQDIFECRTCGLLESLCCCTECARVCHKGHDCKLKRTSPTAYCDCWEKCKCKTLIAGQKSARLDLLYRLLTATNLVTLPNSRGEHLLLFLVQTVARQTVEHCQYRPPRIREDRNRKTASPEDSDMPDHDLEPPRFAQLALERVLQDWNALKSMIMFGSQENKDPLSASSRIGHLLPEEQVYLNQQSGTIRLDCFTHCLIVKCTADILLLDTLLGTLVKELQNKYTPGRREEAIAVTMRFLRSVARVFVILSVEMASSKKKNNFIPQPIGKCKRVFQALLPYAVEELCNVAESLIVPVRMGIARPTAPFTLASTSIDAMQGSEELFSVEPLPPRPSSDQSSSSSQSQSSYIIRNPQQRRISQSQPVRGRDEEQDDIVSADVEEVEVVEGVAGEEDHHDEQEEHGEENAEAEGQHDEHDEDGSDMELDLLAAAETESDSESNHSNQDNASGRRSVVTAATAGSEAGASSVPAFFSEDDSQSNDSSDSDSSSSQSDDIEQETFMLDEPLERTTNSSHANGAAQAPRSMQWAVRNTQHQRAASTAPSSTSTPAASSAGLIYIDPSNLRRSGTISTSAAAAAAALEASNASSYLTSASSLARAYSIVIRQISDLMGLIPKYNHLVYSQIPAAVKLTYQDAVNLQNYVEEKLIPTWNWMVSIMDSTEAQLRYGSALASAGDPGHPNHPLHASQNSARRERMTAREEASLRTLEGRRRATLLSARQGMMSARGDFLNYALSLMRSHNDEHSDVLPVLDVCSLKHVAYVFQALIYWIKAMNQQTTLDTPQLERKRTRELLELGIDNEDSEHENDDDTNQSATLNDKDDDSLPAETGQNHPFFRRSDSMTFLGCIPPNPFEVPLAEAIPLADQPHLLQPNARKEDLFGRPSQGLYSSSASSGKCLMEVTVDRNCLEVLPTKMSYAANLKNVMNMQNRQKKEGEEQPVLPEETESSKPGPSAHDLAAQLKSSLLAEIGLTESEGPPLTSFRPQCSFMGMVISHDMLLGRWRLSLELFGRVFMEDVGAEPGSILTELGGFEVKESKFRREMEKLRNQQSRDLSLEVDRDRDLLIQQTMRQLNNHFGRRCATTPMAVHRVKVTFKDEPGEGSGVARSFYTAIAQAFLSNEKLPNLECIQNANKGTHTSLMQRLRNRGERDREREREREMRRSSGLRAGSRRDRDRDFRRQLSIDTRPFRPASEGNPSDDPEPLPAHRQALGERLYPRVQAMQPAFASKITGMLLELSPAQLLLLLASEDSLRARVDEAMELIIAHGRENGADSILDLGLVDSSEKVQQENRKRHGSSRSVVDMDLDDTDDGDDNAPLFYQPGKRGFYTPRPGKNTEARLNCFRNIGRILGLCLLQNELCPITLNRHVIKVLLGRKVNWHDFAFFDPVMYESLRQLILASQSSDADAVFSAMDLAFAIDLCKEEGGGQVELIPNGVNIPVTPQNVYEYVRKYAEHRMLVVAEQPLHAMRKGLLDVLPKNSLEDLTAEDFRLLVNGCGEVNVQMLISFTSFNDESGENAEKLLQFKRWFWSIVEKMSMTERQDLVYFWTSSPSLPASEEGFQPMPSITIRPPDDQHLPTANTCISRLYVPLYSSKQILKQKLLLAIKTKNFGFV
UniProt Q15853: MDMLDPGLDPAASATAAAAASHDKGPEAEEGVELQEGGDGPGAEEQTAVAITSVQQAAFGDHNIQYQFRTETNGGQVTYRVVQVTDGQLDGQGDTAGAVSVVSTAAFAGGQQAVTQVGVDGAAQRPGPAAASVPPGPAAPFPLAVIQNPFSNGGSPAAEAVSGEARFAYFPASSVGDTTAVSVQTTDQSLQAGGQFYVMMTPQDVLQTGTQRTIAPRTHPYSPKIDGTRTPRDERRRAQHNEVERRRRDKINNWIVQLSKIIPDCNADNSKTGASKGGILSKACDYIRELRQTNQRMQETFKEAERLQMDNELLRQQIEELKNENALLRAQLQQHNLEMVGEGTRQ
UniProt P61960, whole entry, looked up: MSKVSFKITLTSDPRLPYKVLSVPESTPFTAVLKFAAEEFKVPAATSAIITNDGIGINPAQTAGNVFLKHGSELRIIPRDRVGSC
UniProt Q96LJ8: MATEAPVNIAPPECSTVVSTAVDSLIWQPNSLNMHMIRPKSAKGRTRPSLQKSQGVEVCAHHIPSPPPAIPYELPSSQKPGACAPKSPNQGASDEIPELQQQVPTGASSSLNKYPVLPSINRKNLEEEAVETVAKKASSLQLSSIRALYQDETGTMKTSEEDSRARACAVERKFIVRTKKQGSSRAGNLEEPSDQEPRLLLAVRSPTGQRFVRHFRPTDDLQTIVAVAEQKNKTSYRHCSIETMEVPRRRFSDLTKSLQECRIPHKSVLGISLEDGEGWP
UniProt Q9BZI7: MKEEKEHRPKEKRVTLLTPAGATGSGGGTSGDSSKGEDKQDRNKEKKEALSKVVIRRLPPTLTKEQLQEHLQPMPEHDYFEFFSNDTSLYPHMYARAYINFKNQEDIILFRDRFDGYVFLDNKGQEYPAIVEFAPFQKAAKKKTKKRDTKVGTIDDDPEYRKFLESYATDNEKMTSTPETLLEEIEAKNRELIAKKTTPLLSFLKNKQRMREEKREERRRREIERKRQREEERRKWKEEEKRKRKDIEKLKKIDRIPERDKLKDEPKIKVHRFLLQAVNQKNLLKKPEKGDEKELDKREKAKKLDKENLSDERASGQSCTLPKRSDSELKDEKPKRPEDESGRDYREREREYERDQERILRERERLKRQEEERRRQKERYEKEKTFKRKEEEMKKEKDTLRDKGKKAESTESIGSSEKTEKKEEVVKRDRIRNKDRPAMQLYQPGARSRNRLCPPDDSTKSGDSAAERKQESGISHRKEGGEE
UniProt Q8IX04: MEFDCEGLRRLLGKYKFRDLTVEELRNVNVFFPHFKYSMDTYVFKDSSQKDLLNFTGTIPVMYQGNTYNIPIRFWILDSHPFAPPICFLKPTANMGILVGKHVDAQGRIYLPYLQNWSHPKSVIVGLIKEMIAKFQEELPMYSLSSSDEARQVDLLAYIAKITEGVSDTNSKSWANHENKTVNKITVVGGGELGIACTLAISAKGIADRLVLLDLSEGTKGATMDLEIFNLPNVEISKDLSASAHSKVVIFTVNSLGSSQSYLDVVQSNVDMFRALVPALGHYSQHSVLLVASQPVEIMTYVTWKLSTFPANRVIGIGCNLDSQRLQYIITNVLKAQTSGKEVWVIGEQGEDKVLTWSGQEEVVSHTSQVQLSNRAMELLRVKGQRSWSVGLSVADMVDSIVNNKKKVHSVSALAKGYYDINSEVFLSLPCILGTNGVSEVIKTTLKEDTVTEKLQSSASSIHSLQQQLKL

How the values were obtained:
Assay in all cases: log2 fold change, soluble protein after heating vs DMSO (PISA); higher = thermal stabilisation; K562 cells, 10 uM, 30 min; active = over 0.2 and 3.5 SD of the protein, either way, in both replicates (recomputed)
bafetinib = compound: Cc1ccc(NC(=O)c2ccc(CN3CC[C@H](N(C)C)C3)c(C(F)(F)F)c2)cc1Nc1nccc(-c2cncnc2)n1 [bafetinib]
How it was run: (§1)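 Aliquots of K562 cells (2×10^6 cells/mL) treated with 10 μM compound for 30 min were heated for 3 min over 48°C-58°C. After pooling and extraction in PBS with 0.5% NP-40 at 4°C, soluble protein from a 21,000xg, 90 min spin was quantified by TMTpro 16plex LC-MS/MS with channel sums equalised. Thermal stability is expressed against control samples, from duplicates, as a log2 fold change.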

[1] = compound: Cc1cccc(CC(=O)N2CCc3c2ccc(-c2cn(C)c4ncnc(N)c24)c3F)n1
How it was run: as §1

nilotinib = compound: Cc1cn(-c2cc(NC(=O)c3ccc(C)c(Nc4nccc(-c5cccnc5)n4)c3)cc(C(F)(F)F)c2)cn1 [nilotinib]
How it was run: as §1

[2] = compound: Cc1nc(Nc2n[nH]c3c2CN(C(=O)N[C@H](CN(C)C)c2ccccc2)C3(C)C)c2sccc2n1
How it was run: as §1

dasatinib = compound: Cc1nc(Nc2ncc(C(=O)Nc3c(C)cccc3Cl)s2)cc(N2CCN(CCO)CC2)n1 [dasatinib]
How it was run: as §1

[3] = compound: Cc1ncc(-c2ccnc(Nc3ccc(S(C)(=O)=O)cc3)n2)n1C(C)C
How it was run: as §1

[4] = compound: Cn1cc(-c2ccc3c(c2)CCN3C(=O)Cc2cccc(C(F)(F)F)c2)c2c(N)ncnc21
How it was run: as §1

mubritinib = compound: FC(F)(F)c1ccc(/C=C/c2nc(COc3ccc(CCCCn4ccnn4)cc3)co2)cc1 [mubritinib]
How it was run: as §1

[5] = compound: NC(=O)Nc1cc(-c2cccc(F)c2)sc1C(=O)N[C@H]1CCCNC1
How it was run: as §1

[6] = compound: NC(=O)c1cnc(N[C@@H]2CCCC[C@@H]2N)nc1Nc1cccc(-n2nccn2)c1
How it was run: as §1

[7] = compound: NC1(c2ccc(-c3nc4ccn5c(=O)[nH]nc5c4cc3-c3ccccc3)cc2)CCC1
How it was run: as §1

entinostat = compound: Nc1ccccc1NC(=O)c1ccc(CNC(=O)OCc2cccnc2)cc1 [entinostat]
How it was run: as §1

vorinostat = compound: O=C(CCCCCCC(=O)Nc1ccccc1)NO [vorinostat]
How it was run: as §1

silmitasertib = compound: O=C(O)c1ccc2c(c1)nc(Nc1cccc(Cl)c1)c1ccncc12 [silmitasertib]
How it was run: as §1

[8] = compound: O=C1NC(=O)C(c2cnc3ccccn23)=C1c1cn2c3c(cc(F)cc13)CN(C(=O)N1CCCCC1)CC2
How it was run: as §1

[9] = compound: Cn1cc(-c2ccc3nnc(C(F)(F)c4ccc5ncccc5c4)n3n2)cn1
How it was run: as §1

tipifarnib = compound: Cn1cncc1[C@@](N)(c1ccc(Cl)cc1)c1ccc2c(c1)c(-c1cccc(Cl)c1)cc(=O)n2C [tipifarnib]
How it was run: as §1

[10] = compound: NCC(=O)Nc1ccc(-n2nc(C(F)(F)F)cc2-c2ccc3c(ccc4ccccc43)c2)cc1
How it was run: as §1

citarinostat = compound: O=C(CCCCCCNC(=O)c1cnc(N(c2ccccc2)c2ccccc2Cl)nc1)NO [citarinostat]
How it was run: as §1

[11] = compound: c1cc(OCCN2CCCCC2)cc(-c2n[nH]c3ccc(-c4nnc[nH]4)cc23)c1
How it was run: as §1

Target	log2 fold change (bafetinib)	log2 fold change [1]	log2 fold change (nilotinib)	log2 fold change [2]	log2 fold change (dasatinib)	log2 fold change [3]	log2 fold change [4]	log2 fold change (mubritinib)	log2 fold change [5]	log2 fold change [6]	log2 fold change [7]	log2 fold change (entinostat)	log2 fold change (vorinostat)	log2 fold change (silmitasertib)	log2 fold change [8]	log2 fold change [9]	log2 fold change (tipifarnib)	log2 fold change [10]	log2 fold change (citarinostat)	log2 fold change [11]
UBR1 (UniProt Q8IWV7)	inactive: 0.126	inactive: -0.604	inactive: 0.085	inactive: -0.315	inactive: -0.165	inactive: -0.126	inactive: -0.153	inactive: 0.047	inactive: -0.206	inactive: -0.13	inactive: -0.069	inactive: -0.076	inactive: 0.027	inactive: 0.197	inactive: 0.102	–	–	–	–	–
UCK2 (UniProt Q9BZX2)	inactive: -0.057	inactive: 0.04	inactive: -0.065	inactive: 0	inactive: -0.034	inactive: 0.005	inactive: 0.063	inactive: -0.008	inactive: 0.021	inactive: -0.023	inactive: -0.067	inactive: -0.019	inactive: 0.025	inactive: -0.006	inactive: -0.039	inactive: 0.163	inactive: -0.02	inactive: -0.053	inactive: 0.031	inactive: -0.054
UQCC3 (UniProt Q6UW78)	inactive: -0.034	inactive: -0.104	inactive: 0.117	inactive: -0.151	–	inactive: 0.007	inactive: -0.148	–	–	–	–	–	inactive: -0.216	–	inactive: -0.125	–	–	–	–	–
URM1 isoform 2 (UniProt Q9BTM9)	inactive: -0.085	inactive: 0.2	inactive: 0.091	inactive: -0.082	inactive: -0.432	inactive: 0.018	–	inactive: 0.088	inactive: 0.017	inactive: -0.005	inactive: -0.069	inactive: -0.006	inactive: 0.163	inactive: -0.077	–	inactive: 0.127	–	inactive: -0.099	inactive: -0.025	inactive: -0.05
USP54 (UniProt Q70EL1)	inactive: -0.156	inactive: -0.361	–	–	inactive: -0.034	–	–	inactive: 0.011	–	–	inactive: -0.14	–	inactive: 0.242	inactive: 0.016	–	–	inactive: 0.361	inactive: 0.004	–	–
UMAD1 (UniProt C9J7I0)	inactive: -0.038	inactive: -0.301	inactive: 0.043	inactive: -0.023	inactive: 0.084	inactive: 0.011	inactive: -0.054	inactive: 0.016	–	–	inactive: -0.097	–	inactive: -0.186	inactive: 0.056	–	inactive: 0.386	inactive: 0.323	–	inactive: 0.031	inactive: 0.077
UBR5 (UniProt O95071)	inactive: -0.015	inactive: -0.014	inactive: -0.051	inactive: -0.093	inactive: 0.013	inactive: 0.021	inactive: -0.166	inactive: -0.083	inactive: -0.005	inactive: -0.047	inactive: 0.002	inactive: 0.036	inactive: 0.017	inactive: 0.14	inactive: 0.036	inactive: -0.015	inactive: 0.082	inactive: -0.014	inactive: 0.018	inactive: -0.141
VAC14 (UniProt Q08AM6)	inactive: -0.045	inactive: -0.005	inactive: -0.02	inactive: 0.041	inactive: -0.078	inactive: -0.054	inactive: 0.058	inactive: 0.044	inactive: 0.007	inactive: -0.061	inactive: -0.124	inactive: 0.009	inactive: 0.039	inactive: 0.007	inactive: 0	inactive: 0.038	inactive: 0.016	inactive: -0.056	inactive: 0.003	inactive: -0.053
USP3 (UniProt Q9Y6I4)	inactive: 0.011	inactive: -0.009	inactive: -0.125	inactive: -0.198	inactive: -0.185	inactive: -0.026	inactive: 0.027	inactive: 0.045	inactive: 0.039	inactive: 0.016	inactive: -0.218	inactive: -0.037	inactive: 0.092	inactive: 0.019	inactive: -0.066	inactive: -0.023	inactive: -0.226	inactive: -0.115	inactive: 0.102	inactive: -0.014
USP30 (UniProt Q70CQ3)	inactive: 0.065	–	inactive: -0.071	inactive: -0.059	inactive: -0.108	inactive: 0.074	inactive: -0.116	inactive: 0.193	inactive: -0.154	inactive: 0.09	inactive: 0.076	inactive: 0.016	–	inactive: 0.233	inactive: 0.124	inactive: 0.332	inactive: 0.023	inactive: -0.359	inactive: -0.03	inactive: -0.148
UNK (UniProt Q9C0B0)	inactive: -0.088	inactive: -0.026	inactive: -0.061	inactive: -0.208	inactive: -0.026	inactive: -0.033	inactive: -0.011	inactive: -0.041	inactive: -0.039	inactive: -0.032	inactive: -0.023	inactive: 0.027	inactive: 0.023	inactive: 0.073	–	–	inactive: 0.118	inactive: -0.071	inactive: 0.079	inactive: -0.009
USF2 (UniProt Q15853)	inactive: 0.026	inactive: 0.043	inactive: 0.032	inactive: -0.074	inactive: -0.017	inactive: 0.086	inactive: -0.019	inactive: -0.061	inactive: 0.201	inactive: -0.009	inactive: 0.059	inactive: -0.027	inactive: -0.134	inactive: 0.065	inactive: 0.065	inactive: 0.012	inactive: 0.015	inactive: -0.02	inactive: -0.106	inactive: -0.057
USP16 (UniProt Q9Y5T5)	inactive: 0.487	inactive: 0.027	inactive: 0.008	inactive: -0.047	inactive: 0.033	inactive: -0.033	inactive: -0.118	inactive: -0.162	–	inactive: -0.084	inactive: 0.191	–	inactive: 0.103	inactive: 0.135	inactive: 0.224	inactive: 0.07	–	inactive: -0.047	–	–
UFM1 isoform 2 (UniProt P61960)	inactive: -0.061	inactive: 0.089	inactive: -0.009	inactive: 0.023	inactive: 0.116	inactive: 0.002	inactive: 0.045	inactive: -0.015	inactive: -0.031	inactive: -0.114	inactive: -0.087	inactive: -0.012	inactive: -0.057	inactive: -0.025	inactive: -0.007	–	inactive: -0.016	inactive: -0.057	inactive: -0.044	inactive: -0.218
UBXN10 (UniProt Q96LJ8)	inactive: 0.002	inactive: -0.266	inactive: -0.085	inactive: 0.141	inactive: -0.032	inactive: -0.098	inactive: -0.075	inactive: 0.067	inactive: 0.062	–	inactive: 0.102	inactive: -0.069	inactive: 0.136	inactive: -0.006	inactive: -0.031	inactive: 0.021	inactive: 0.01	active: -0.426	inactive: -0.121	inactive: 0.037
UTP18 (UniProt Q9Y5J1)	inactive: 0.346	inactive: 0.07	inactive: 0.008	inactive: 0.159	–	inactive: 0.067	–	–	inactive: 0.037	–	–	inactive: -0.192	inactive: 0.031	–	inactive: 0.12	inactive: -0.197	–	–	inactive: -0.115	inactive: -0.1
UPF3B (UniProt Q9BZI7)	inactive: 0.108	inactive: 0.055	inactive: -0.15	inactive: 0.098	inactive: 0.143	inactive: -0.085	inactive: -0.225	inactive: -0.098	inactive: 0.092	inactive: 0.11	inactive: 0.315	inactive: -0.079	inactive: 0	inactive: 0.149	inactive: 0.245	inactive: -0.24	inactive: 0.106	inactive: 0.096	inactive: -0.125	inactive: -0.278
UBXN8 (UniProt O00124)	inactive: -0.112	inactive: -0.086	–	–	inactive: -0.056	–	inactive: 0.017	–	inactive: -0.139	inactive: -0.103	–	inactive: 0.046	inactive: -0.055	–	inactive: -0.05	inactive: -0.439	inactive: 0.048	inactive: -0.344	inactive: 0.037	inactive: -0.143
UEVLD (UniProt Q8IX04)	inactive: 0.25	inactive: -0.062	inactive: -0.05	inactive: -0.116	inactive: -0.195	inactive: 0.093	inactive: -0.103	inactive: -0.203	inactive: 0.247	inactive: 0.037	inactive: 0.126	inactive: 0.079	inactive: 0.142	inactive: -0.133	inactive: 0.016	–	–	inactive: -0.078	inactive: 0.061	inactive: -0.095

Full records as entered above. Order of values: log2 fold change (bafetinib) | log2 fold change [1] | log2 fold change (nilotinib) | log2 fold change [2] | log2 fold change (dasatinib) | log2 fold change [3] | log2 fold change [4] | log2 fold change (mubritinib) | log2 fold change [5] | log2 fold change [6] | log2 fold change [7] | log2 fold change (entinostat) | log2 fold change (vorinostat) | log2 fold change (silmitasertib) | log2 fold change [8] | log2 fold change [9] | log2 fold change (tipifarnib) | log2 fold change [10] | log2 fold change (citarinostat) | log2 fold change [11]
URM1 isoform 2 (UniProt Q9BTM9) reads inactive: -0.085 | inactive: 0.2 | inactive: 0.091 | inactive: -0.082 | inactive: -0.432 | inactive: 0.018 | – | inactive: 0.088 | inactive: 0.017 | inactive: -0.005 | inactive: -0.069 | inactive: -0.006 | inactive: 0.163 | inactive: -0.077 | – | inactive: 0.127 | – | inactive: -0.099 | inactive: -0.025 | inactive: -0.05
VAC14 (UniProt Q08AM6) reads inactive: -0.045 | inactive: -0.005 | inactive: -0.02 | inactive: 0.041 | inactive: -0.078 | inactive: -0.054 | inactive: 0.058 | inactive: 0.044 | inactive: 0.007 | inactive: -0.061 | inactive: -0.124 | inactive: 0.009 | inactive: 0.039 | inactive: 0.007 | inactive: 0 | inactive: 0.038 | inactive: 0.016 | inactive: -0.056 | inactive: 0.003 | inactive: -0.053
